Reference: PMC8115037, “Paracoccus denitrificans: a genetically tractable model system for studying respiratory complex I” (Scientific Reports, 2021)
Where a chain is given by its changes, count along the chain named. Names and notes keep the numbering of the source. These are yes or no findings as the source states them, for the method shown. Some binding calls cover weakened binding; strength is not graded here. Where a sequence is shown, tags or fusion partners need not be part of it.

T1: Nqo5 (NDUFS3) subunit of P. denitrificans complex I with a C-terminal Ala6-His6 tag (P. denitrificans) (UniProt P29917)
T1 sequence: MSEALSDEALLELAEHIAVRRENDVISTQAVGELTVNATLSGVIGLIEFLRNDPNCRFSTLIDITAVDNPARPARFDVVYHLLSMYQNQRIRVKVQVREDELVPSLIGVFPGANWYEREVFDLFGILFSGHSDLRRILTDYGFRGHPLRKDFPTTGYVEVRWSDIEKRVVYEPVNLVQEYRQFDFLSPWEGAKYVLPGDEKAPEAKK

B1: Nqo13 (ND4) subunit of P. denitrificans complex I, K232Q variant (protein, UniProt P29925 1-513)
chain: MTNLLSIITFLPIVAAIIMALFLRGQDEAAARNAKWLALLTTTATFVISLFVLFRFDPANTGFQFVEDHAWIMGVCYKMGVDGISVLFVLLTTFMMPLTILSTWQVQDKVKEYMIAFLVLEGLMIGVFTALDLVLFYLFFEAGLIPMFLIIGIWGGKDRIYASFKFFLYTFLGSVLMLVAMIAMYRMAGTTDIPTLLTFDFPSENFRLLGMTVVGGMQMLLFLAFFASFAVQMPMWPVHTWLPDAHVQAPTAGSVLLAAVLLKMGGYGFLRFSLPMFPVASGVAQPYVFWLSAIAIVYTSLVALAQSDMKKVIAYSSVAHMGYVTMGVFAANQIGVDGAIFQMLSHGFISGALFLCVGVIYDRMHTREIDAYGGLVNRMPAYAAVFMFFTMANVGLPGTSGFVGEFLTLMGVFRVDTWVALVATSGVILSAAYALWLYRRVTLGQLIKESLKSITDMTPRERWVFIPLIAMTLILGVYPRLVTDVTGPAVAALVQDYNQSQPAAPVATAQASH
B2: Nqo13 (ND4) subunit of P. denitrificans complex I, wild type (protein, UniProt P29925 1-513)
chain: B1 chain with Q232K

Molecular target: T1, Nqo5 (NDUFS3) subunit of P. denitrificans complex I with a C-terminal Ala6-His6 tag (P. denitrificans)
Experiment: Ni-affinity purification and SEC with SDS-PAGE band pattern; complex I of wild type and of the K232Q^Nqo13 strain purified by the His6 tag on Nqo5, SEC elution profiles and SDS-PAGE band patterns compared

| Binder | binding |
| --- | --- |
| B1 | binds |
| B2 | binds |
